According to patent publication US12594421B2, “Compositions and methods for increasing cancer cell sensitivity to alternating electric fields” (NOVOCURE GMBH, priority 2020, dated 2026):
At least one compound was matched to its structure with a doubt left.

Key:
H1299 cells = assay: Apoptosis assay, TTFields plus Dasatinib; type: cell-based, human; details: H1299, TTFields 150 kHz, Dasatinib 0.03 μM
A2780 cells = assay: Apoptosis assay (annexin V / 7-AAD), TTFields plus inhibitor; type: cell-based, human; details: A2780, TTFields 200 kHz, Dasatinib 0.075 μM
Protocol: BGT226, Alpalisib, Pictilisib, BKM120 and Dasatinib were added was added to cells 12-24 hours after seeding for inhibitor mono-treatment and combination treatment to a final concentration of 8 nM, 1 nm, 1 nm, 500 nm and 75 nm respectively in A2780 cells. Control and TTFields samples received same volume of DMSO. Following 72 hours of treatment media was replaced for media with no inhibitor and cells were grown for additional 96 hours. At 168 hours (7 days) cytotoxic assay was performed by GentelMACS cell count, Apoptosis assay and cells were seeded for colony assay (as specified in cell count and Quantification of cell death).
Cell death was assessed by double staining of cells with FITC-conjugated annexin V (MEBCYTO© 4700 Apoptosis Kit; MBL©) and 7-Aminoactinomycin D (7-AAD; BioLegend©) as per manufacturer's instructions.

Q: `Cc1nc(Nc2ncc(C(=O)Nc3c(C)cccc3Cl)s2)cc(N2CCN(CCO)CC2)n1` [Dasatinib] was tested. Which “treatment efficacy of TTFields plus Dasatinib, apoptotic effect” value (H1299 cells) did it give?
A: increased treatment efficacy relative to TTFields or inhibitor alone

Q: And the “treatment efficacy of TTFields plus Dasatinib, apoptotic effect” value (A2780 cells)?
A: increased treatment efficacy relative to TTFields or inhibitor alone
